This note sets out measurements from patent US11220671B2, “Methods for the maturation of cardiomyocytes on amniotic fluid cell-derived ECM, cellular constructs, and uses for cardiotoxicity and proarrhythmic screening of drug compounds” (STEMBIOSYS, INC., priority 2019, dated 2022).

The data set is described as follows: Composition of amniotic fluid cell-derived ECM by mass spectrometry (total spectra count).
Where [1] appears, read: amniotic fluid cell-derived ECM Matrix A, mass spectrometry, label = protein component.
[2] abbreviates: amniotic fluid cell-derived ECM Matrix B, mass spectrometry, label = protein component.
Setting [3] is: amniotic fluid cell-derived ECM Matrix C, mass spectrometry, label = protein component.
Setting [4] is: amniotic fluid cell-derived ECM Matrix D, mass spectrometry, label = protein component.
[5] abbreviates: protein component found by mass spectrometry in amniotic fluid cell-derived ECM Matrix A (Example 1).
Setting [6] is: protein component found by mass spectrometry in amniotic fluid cell-derived ECM Matrix B (Example 1).
[7] abbreviates: protein component found by mass spectrometry in amniotic fluid cell-derived ECM Matrix C (Example 1).
The mark [8] stands for this setting: protein component found by mass spectrometry in amniotic fluid cell-derived ECM Matrix D (Example 1).

B1: POU domain, class 3, transcription factor 3 (protein, UniProt P20264 1-500, looked up)
POU domain, class 3, …: MATAASNPYLPGNSLLAAGSIVHSDAAGAGGGGGGGGGGGGGGAGGGGGGMQPGSAAVTSGAYRGDPSSVKMVQSDFMQGAMAASNGGHMLSHAHQWVTALPHAAAAAAAAAAAAVEASSPWSGSAVGMAGSPQQPPQPPPPPPQGPDVKGGAGRDDLHAGTALHHRGPPHLGPPPPPPHQGHPGGWGAAAAAAAAAAAAAAAAHLPSMAGGQQPPPQSLLYSQPGGFTVNGMLSAPPGPGGGGGGAGGGAQSLVHPGLVRGDTPELAEHHHHHHHHAHPHPPHPHHAQGPPHHGGGGGGAGPGLNSHDPHSDEDTPTSDDLEQFAKQFKQRRIKLGFTQADVGLALGTLYGNVFSQTTICRFEALQLSFKNMCKLKPLLNKWLEEADSSTGSPTSIDKIAAQGRKRKKRTSIEVSVKGALESHFLKCPKPSAQEITNLADSLQLEKEVVRVWFCNRRQKEKRMTPPGIQQQTPDDVYSQVGTVSADTPPPHHGLQTSVQ
On to B1, for which, under setting [1], the “Total Spectra Count Matrix A” value worked out at 0. The “Total Spectra Count Matrix B” value under setting [2] is reported as 20. Besides, the “Total Spectra Count Matrix C” value under setting [3] is on record as 0. The “Total Spectra Count Matrix D” value under setting [4] came out at 0.

B2: PR domain zinc finger protein 8 (protein, UniProt Q9NQV8 1-689, looked up)
PR domain zinc finger protein …: MEDTGIQRGIWDGDAKAVQQCLTDIFTSVYTTCDIPENAIFGPCVLSHTSLYDSIAFIALKSTDKRTVPYIFRVDTSAANGSSEGLMWLRLVQSARDKEEQNLEAYIKNGQLFYRSLRRIAKDEELLVWYGKELTELLLLCPSRSHNKMNGSSPYTCLECSQRFQFEFPYVAHLRFRCPKRLHSADISPQDEQGGGVGTKDHGGGGGGGKDQQQQQQEAPLGPGPKFCKAGPLHHYPSPSPESSNPSAAAGGSSAKPSTDFHNLARELENSRGGSSCSPAQSLSSGSGSGGGGGHQEAELSPDGIATGGGKGKRKFPEEAAEGGGGAGLVGGRGRFVERPLPASKEDLVCTPQQYRASGSYFGLEENGRLFAPPSPETGEAKRSAFVEVKKAARAASLQEEGTADGAGVASEDQDAGGGGGSSTPAAASPVGAEKLLAPRPGGPLPSRLEGGSPARGSAFTSVPQLGSAGSTSGGGGTGAGAAGGAGGGQGAASDERKSAFSQPARSFSQLSPLVLGQKLGALEPCHPADGVGPTRLYPAAADPLAVKLQGAADLNGGCGSLPSGGGGLPKQSPFLYATAFWPKSSAAAAAAAAAAAAGPLQLQLPSALTLLPPSFTSLCLPAQNWCAKCNASFRMTSDLVYHMRSHHKKEYAMEPLVKRRREEKLKCPICNESFRERHHLSRHMTSHN
For B2, under setting [1], the “Total Spectra Count Matrix A” value is on record as 0. Further, the “Total Spectra Count Matrix B” value under setting [2] came to 2. The “Total Spectra Count Matrix C” value under setting [3] is 0. Moreover, under setting [4], the “Total Spectra Count Matrix D” value is recorded as 0.

B3: Calpain-2 catalytic subunit (protein, UniProt P17655 20-700, looked up)
Calpain-2 catalytic subunit: SHDRAIKYLNQDYEALRNECLEAGTLFQDPSFPAIPSALGFKELGPYSSKTRGIEWKRPTEICADPQFIIGGATRTDICQGALGDCWLLAAIASLTLNEEILARVVPLNQSFQENYAGIFHFQFWQYGEWVEVVVDDRLPTKDGELLFVHSAEGSEFWSALLEKAYAKINGCYEALSGGATTEGFEDFTGGIAEWYELKKPPPNLFKIIQKALQKGSLLGCSIDITSAADSEAITFQKLVKGHAYSVTGAEEVESNGSLQKLIRIRNPWGEVEWTGRWNDNCPSWNTIDPEERERLTRRHEDGEFWMSFSDFLRHYSRLEICNLTPDTLTSDTYKKWKLTKMDGNWRRGSTAGGCRNYPNTFWMNPQYLIKLEEEDEDEEDGESGCTFLVGLIQKHRRRQRKMGEDMHTIGFGIYEVPEELSGQTNIHLSKNFFLTNRARERSDTFINLREVLNRFKLPPGEYILVPSTFEPNKDGDFCIRVFSEKKADYQAVDDEIEANLEEFDISEDDIDDGFRRLFAQLAGEDAEISAFELQTILRRVLAKRQDIKSDGFSIETCKIMVDMLDSDGSGKLGLKEFYILWTKIQKYQKIYREIDVDRSGTMNSYEMRKALEEAGFKMPCQLHQVIVARFADDQLIIDFDNFVRCLVRLETLFKIFKQLDPENTGTIELDLISWLCFSVL
Take B3: the “Total Spectra Count Matrix A” value under setting [5] was 19. The “Total Spectra Count Matrix B” value under setting [6] amounted to 4. In addition, under setting [7], the “Total Spectra Count Matrix C” value amounted to 0. The “Total Spectra Count Matrix D” value under setting [8] is recorded as 8.

B4: Matrin-3 (protein, UniProt P43243 2-847, looked up)
Matrin-3: SKSFQQSSLSRDSQGHGRDLSAAGIGLLAAATQSLSMPASLGRMNQGTARLASLMNLGMSSSLNQQGAHSALSSASTSSHNLQSIFNIGSRGPLPLSSQHRGDADQASNILASFGLSARDLDELSRYPEDKITPENLPQILLQLKRRRTEEGPTLSYGRDGRSATREPPYRVPRDDWEEKRHFRRDSFDDRGPSLNPVLDYDHGSRSQESGYYDRMDYEDDRLRDGERCRDDSFFGETSHNYHKFDSEYERMGRGPGPLQERSLFEKKRGAPPSSNIEDFHGLLPKGYPHLCSICDLPVHSNKEWSQHINGASHSRRCQLLLEIYPEWNPDNDTGHTMGDPFMLQQSTNPAPGILGPPPPSFHLGGPAVGPRGNLGAGNGNLQGPRHMQKGRVETSRVVHIMDFQRGKNLRYQLLQLVEPFGVISNHLILNKINEAFIEMATTEDAQAAVDYYTTTPALVFGKPVRVHLSQKYKRIKKPEGKPDQKFDQKQELGRVIHLSNLPHSGYSDSAVLKLAEPYGKIKNYILMRMKSQAFIEMETREDAMAMVDHCLKKALWFQGRCVKVDLSEKYKKLVLRIPNRGIDLLKKDKSRKRSYSPDGKESPSDKKSKTDGSQKTESSTEGKEQEEKSGEDGEKDTKDDQTEQEPNMLLESEDELLVDEEEAAALLESGSSVGDETDLANLGDVASDGKKEPSDKAVKKDGSASAAAKKKLKKVDKIEELDQENEAALENGIKNEENTEPGAESSENADDPNKDTSENADGQSDENKDDYTIPDEYRIGPYQPNVPVGIDYVIPKTGFYCKLCSLFYTNEEVAKNTHCSSLPHYQKLKKFLNKLAEERRQKKET
B4: the “Total Spectra Count Matrix A” value under setting [5] amounted to 19. For the same molecule, under setting [6], the “Total Spectra Count Matrix B” value is 46. In addition, the “Total Spectra Count Matrix C” value under setting [7] worked out at 5. Besides, the “Total Spectra Count Matrix D” value under setting [8] was determined as 20.

B5: Heterogeneous nuclear ribonucleoproteins C1/C2 (protein, UniProt P07910 2-306, looked up)
Heterogeneous nuclear …: ASNVTNKTDPRSMNSRVFIGNLNTLVVKKSDVEAIFSKYGKIVGCSVHKGFAFVQYVNERNARAAVAGEDGRMIAGQVLDINLAAEPKVNRGKAGVKRSAAEMYGSVTEHPSPSPLLSSSFDLDYDFQRDYYDRMYSYPARVPPPPPIARAVVPSKRQRVSGNTSRRGKSGFNSKSGQRGSSKSGKLKGDDLQAIKKELTQIKQKVDSLLENLEKIEKEQSKQAVEMKNDKSEEEQSSSSVKKDETNVKMESEGGADDSAEEGDLLDDDDNEDRGDDQLELIKDDEKEAEEGEDDRDSANGEDDS
Take B5: the “Total Spectra Count Matrix A” value under setting [5] is reported as 18. In addition, the “Total Spectra Count Matrix B” value under setting [6] was 52. Also, under setting [7], the “Total Spectra Count Matrix C” value is 6. Further, under setting [8], the “Total Spectra Count Matrix D” value was 22.

B6: Probable global transcription activator SNF2L1 (protein, UniProt P28370 1-1042, looked up)
SWI/SNF-related …: MEQDTAAVAATVAAADATATIVVIEDEQPGPSTSQEEGAAAAATEATAATEKGEKKKEKNVSSFQLKLAAKAPKSEKEMDPEYEEKMKADRAKRFEFLLKQTELFAHFIQPSAQKSPTSPLNMKLGRPRIKKDEKQSLISAGDYRHRRTEQEEDEELLSESRKTSNVCIRFEVSPSYVKGGPLRDYQIRGLNWLISLYENGVNGILADEMGLGKTLQTIALLGYLKHYRNIPGPHMVLVPKSTLHNWMNEFKRWVPSLRVICFVGDKDARAAFIRDEMMPGEWDVCVTSYEMVIKEKSVFKKFHWRYLVIDEAHRIKNEKSKLSEIVREFKSTNRLLLTGTPLQNNLHELWALLNFLLPDVFNSADDFDSWFDTKNCLGDQKLVERLHAVLKPFLLRRIKTDVEKSLPPKKEIKIYLGLSKMQREWYTKILMKDIDVLNSSGKMDKMRLLNILMQLRKCCNHPYLFDGAEPGPPYTTDEHIVSNSGKMVVLDKLLAKLKEQGSRVLIFSQMTRLLDILEDYCMWRGYEYCRLDGQTPHEEREEAIEAFNAPNSSKFIFMLSTRAGGLGINLASADVVILYDSDWNPQVDLQAMDRAHRIGQKKPVRVFRLITDNTVEERIVERAEIKLRLDSIVIQQGRLIDQQSNKLAKEEMLQMIRHGATHVFASKESELTDEDITTILERGEKKTAEMNERLQKMGESSLRNFRMDIEQSLYKFEGEDYREKQKLGMVEWIEPPKRERKANYAVDAYFREALRVSEPKIPKAPRPPKQPNVQDFQFFPPRLFELLEKEILYYRKTIGYKVPRNPDIPNPALAQREEQKKIDGAEPLTPEETEEKEKLLTQGFTNWTKRDFNQFIKANEKYGRDDIDNIAREVEGKSPEEVMEYSAVFWERCNELQDIEKIMAQIERGEARIQRRISIKKALDAKIARYKAPFHQLRIQYGTSKGKNYTEEEDRFLICMLHKMGFDRENVYEELRQCVRNAPQFRFDWFIKSRTAMEFQRRCNTLISLIEKENMEIEERERAEKKKRATKTPMVKFSAFS
In the case of B6, under setting [1], the “Total Spectra Count Matrix A” value is 0. Further, under setting [2], the “Total Spectra Count Matrix B” value turned out to be 6. Further, the “Total Spectra Count Matrix C” value under setting [3] was 0. Also, the “Total Spectra Count Matrix D” value under setting [4] amounted to 0.

B7: Probable ATP-dependent RNA helicase DDX27 (protein, UniProt Q96GQ7 1-765, looked up)
Probable ATP-dependent RNA …: MLADLGLIGTIGEDDEVPVEPESDSGDEEEEGPIVLGRRQKALGKNRSADFNPDFVFTEKEGTYDGSWALADVMSQLKKKRAATTLDEKIEKVRKKRKTEDKEAKSGKLEKEKEAKEGSEPKEQEDLQENDEEGSEDEASETDYSSADENILTKADTLKVKDRKKKKKKGQEAGGFFEDASQYDENLSFQDMNLSRPLLKAITAMGFKQPTPIQKACIPVGLLGKDICACAATGTGKTAAFALPVLERLIYKPRQAPVTRVLVLVPTRELGIQVHSVTRQLAQFCNITTCLAVGGLDVKSQEAALRAAPDILIATPGRLIDHLHNCPSFHLSSIEVLILDEADRMLDEYFEEQMKEIIRMCSHHRQTMLFSATMTDEVKDLASVSLKNPVRIFVNSNTDVAPFLRQEFIRIRPNREGDREAIVAALLTRTFTDHVMLFTQTKKQAHRMHILLGLMGLQVGELHGNLSQTQRLEALRRFKDEQIDILVATDVAARGLDIEGVKTVINFTMPNTIKHYVHRVGRTARAGRAGRSVSLVGEDERKMLKEIVKAAKAPVKARILPQDVILKFRDKIEKMEKDVYAVLQLEAEEKEMQQSEAQINTAKRLLEKGKEAVVQEPERSWFQTKEERKKEKIAKALQEFDLALRGKKKRKKFMKDAKKKGEMTAEERSQFEILKAQMFAERLAKRNRRAKRARAMPEEEPVRGPAKKQKQGKKSVFDEELTNTSKKALKQYRAGPSFEERKQLGLPHQRRGGNFKSKSRYKRRK
Consider B7, for which, under setting [1], the “Total Spectra Count Matrix A” value came out at 0. Under setting [2], the “Total Spectra Count Matrix B” value came to 4. In addition, the “Total Spectra Count Matrix C” value under setting [3] is recorded as 0. The “Total Spectra Count Matrix D” value under setting [4] was determined as 0.
